Laboratory results as given in PMC8881624.
Results are given in words; binding and its absence hold for the method and conditions named. In cells and extracts the contact can be indirect. Some results given as binding are weak or reduced against the parent protein; the word gives no strength. Where a sequence is shown, tags or fusion partners need not be part of it.

Target: T1, Lsm4-cMyc (S. pombe) (UniProt O14352)
T1 sequence: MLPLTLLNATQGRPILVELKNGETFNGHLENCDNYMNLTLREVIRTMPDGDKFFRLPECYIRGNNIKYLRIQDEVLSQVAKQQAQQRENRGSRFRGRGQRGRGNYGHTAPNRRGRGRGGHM
Experiment: co-IP; S. pombe cell-free extract in TMG(300), antibody-coated protein G Dynabeads (anti-FLAG, anti-V5 or anti-c-Myc), 4 h at 4 °C, western blot; beads also treated with RNase A or Benzonase (15 min, 37 °C); Pof8-Thc1 also in bmc1Δ background

binding: binds
B1: Bmc1-Twinstrep (protein, UniProt Q9Y7L2 1-268)
chain: MSNFQHGNYHSYYSMRGGTSIIDPRLKCLPDSLFYEASVLDIGCNNGTVSAQIASIFGASFVLGLDIDHVLIQKARKHLEFVSSRIGPVRNPGSIVEDQFNYYPISSIKKFSRIPVQLQPPLNKQNFPHNIEFETADFLRWESKRKFKIILALSVSKWVHLNNHDEGIIKFFGKISSLLETNGVLILEPQGWDSYLKAAKKISVFNQTPENLKIQPDAFEHLLNQAGLVLEYSIEPQVNNSEYKNFAKRTMYIYKKKGIGIIKLLTST
